Data on 62 compounds can be found in PubChem BioAssay AID2685 (National Center for Advancing Translational Sciences (NCATS), 2010).

The other results are listed elsewhere or left out. Shown are side measurements of this screen, not its main read-out; they come without a call. The list favours compounds with an active or inconclusive main result. Words in brackets tell the shape of the fitted curve; partial curves, single points and poor fits give uncertain potencies.

This test is described as follows: qHTS Assay for Lipid Storage Modulators in Drosophila S3 Cells.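 As to cell number change: cells counted by Cell Tracker Red CMTPX staining in the red channel.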 The following applies: BODIPY lipid droplet fluorescence, 18-24 h; for cell number change: measured here: cell count max response, cells fed with added oleic acid. An outline of the steps: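 Drosophila S3 cells got compounds at several concentrations plus oleic acid (400 uM solution). Laser-scanning cytometry with 488 nm excitation read lipid droplets at 500-530 nm and cells at 575-640 nm. Percent activity was relative to 20 uM Triacsin C.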
In general terms: qHTS replaces the single test concentration by a dilution series.

The mark [1] stands for this setting: measured here: cell number channel AC50, cells fed with added oleic acid.
Where [2] appears, read: measured here: lipid fluorescence (Fed channel) AC50, cells fed with added oleic acid.

As to `CCCCOc1ccc(OCCNC(=O)C2CCCN2C(=O)Nc2ccccc2)cc1` (stereo not drawn), the cell number change is 18.1%.
Same read-out and setting: to `O=C1Nc2ccc(S(=O)(=O)N3CCCC3)c3cccc1c23` belongs -6.55%.
Broadly, the AC50 is the concentration giving half of the maximal activity seen. Regarding `COc1ccc(NC(=O)COC(=O)c2cc(SC)ccc2Cl)c(OC)c1`, the cell number change is 125%. Besides, the AC50 under setting [1] is 29.1 µM [rising, single point]. The half-maximal activity concentration (AC50) under setting [2] is 29.1 µM [rising, single point].
Turning to `O=C(Cn1c(CO)nc2ccccc21)NCCc1ccc(F)cc1`, the cell number change was 86.2%. The AC50 under setting [1] is 5.8 µM [rising, partial curve]. Under setting [2], the AC50 was 6.51 µM [rising, partial curve].
As for `O=S(=O)(Nc1ccccn1)c1cccs1`, the cell number change is -24.7%. Moreover, the concentration at half-maximal activity (AC50) under setting [2] is 0.82 µM [falling, full curve, poor fit].
As to `COc1cccc(CNc2ncnc3cc(Cl)ccc23)c1`, the cell number change is -7.17%. Under setting [2], the AC50 is 18.4 µM [falling, single point].
Take `Cc1sc(NC(=O)CSC2=NCCS2)nc1-c1ccccc1`: the cell number change is -21.8%. Moreover, under setting [2], the half-maximal activity concentration (AC50) is 0.164 µM [falling, full curve, poor fit].
`CCC(=O)Nc1ccc(C(=O)N/N=C/c2cc(Br)c(OC)cc2OC)cc1`: the cell number change is -8.22%. Moreover, under setting [2], the AC50 was 1.84 µM [rising, partial curve, poor fit].
On to `CCOc1ccc(N(CC(=O)Nc2nccs2)S(=O)(=O)c2c(C)[nH]c(=O)[nH]c2=O)cc1`, for which the cell number change is -35.5%. The half-maximal activity concentration (AC50) under setting [1] was 2.06 µM [rising, partial curve, poor fit]. Under setting [2], the AC50 was 2.06 µM [rising, partial curve].
As for `Cc1ccc(SCc2noc(-c3c(C)noc3C)n2)cc1`, the cell number change was -14.7%. For the same compound, under setting [2], the AC50 is 0.731 µM [falling, full curve].
With `Cc1onc(-c2ccccc2)c1C(=O)N1CCN(c2ccccn2)CC1`, the cell number change was found to be 18.9%.
With `Cc1cc(Br)ccc1NC(=O)CNC(=O)CN(C)C1CCS(=O)(=O)C1` (stereo not drawn), the cell number change was found to be 43.8%. Further, under setting [1], the AC50 was 1.64 µM [rising, full curve, poor fit].
As to `CCOC(=O)c1ccc(N2C(=O)CC(Sc3nc(C)cc(C)n3)C2=O)cc1` (stereo not drawn), the cell number change worked out at 14.4%. In addition, under setting [2], the half-maximal activity concentration (AC50) is 6.51 µM [rising, single point].
Regarding `Cc1c(Cl)cccc1NC(=O)N1CCN(C(=O)c2ccco2)CC1`, the cell number change was -16.3%. In addition, the AC50 under setting [1] is 0.731 µM [falling, single point].
Consider `O=C(NNC(=O)c1cc(-c2ccccc2Cl)nc2ccccc12)c1csc(N2CCOCC2)n1`, for which the AC50 under setting [2] is 1.84 µM [rising, partial curve, poor fit].
`CCN(CC(=O)Nc1c(F)cccc1F)C(=O)CCc1c[nH]c2ccccc12`: the cell number change is 20.6%.
In the case of `Cc1cc(C)cc(NC(=O)C2C3C=CC4(O3)C2C(=O)N(CCN2CCCCC2)C4C(=O)NC2CCCCC2)c1` (stereo not drawn), the cell number change worked out at 24.4%. For the same compound, the AC50 under setting [2] was 3.26 µM [falling, partial curve, poor fit].
Take `Clc1cccc(OCCCCCN2CCOCC2)c1`: the cell number change was -18.9%. Also, the AC50 under setting [2] is 14.6 µM [falling, partial curve].
Turning to `O=C(c1cccc(C(F)(F)F)c1)C1CCCN(C(=O)c2cc(C3CC3)[nH]n2)C1` (stereo not drawn), the cell number change is -20.3%. For the same compound, the half-maximal activity concentration (AC50) under setting [2] was 4.61 µM [falling, single point].
For `COc1ccccc1Cc1nc(-c2ccc(C)cc2)no1`, the cell number change turned out to be 142%. Besides, under setting [1], the concentration at half-maximal activity (AC50) was 3.66 µM [rising, full curve]. For the same compound, the AC50 under setting [2] was 3.26 µM [rising, full curve].
Consider `CC(=O)c1cccc(NC(=O)COC(=O)c2ccc3c(c2)OCCO3)c1`, for which the cell number change came to 30.3%. For the same compound, under setting [2], the AC50 was 29.1 µM [rising, single point].
As for `COC(=O)CSc1cc(C)nc(SC)n1`, the cell number change was -11.5%. For the same compound, the half-maximal activity concentration (AC50) under setting [2] was 3.66 µM [falling, full curve].
As for `CCC1(c2ccccc2)NC(=S)N(c2ccc(C)c(C)c2)N1` (stereo not drawn), the cell number change was -12.1%. Further, the AC50 under setting [2] is 5.17 µM [falling, partial curve, poor fit].
`CCn1c(=S)sc2c(=O)n(CC(=O)Nc3cccc(Cl)c3)c(C)nc21`: the cell number change is 8.06%. The AC50 under setting [2] was 14.6 µM [falling, partial curve, poor fit].
As for `CCN(CC)S(=O)(=O)c1ccc(Nc2ccc(-c3ccc4c(c3)OCCO4)nn2)cc1`, the cell number change is -44.5%. Further, the concentration at half-maximal activity (AC50) under setting [1] is 8.2 µM [falling, partial curve, poor fit].
Consider `CCOc1ccc(-c2nnn(CC(=O)c3ccc4c(c3)OCCO4)n2)cc1OCC`, for which the cell number change was -25.3%.
Still for that read-out and setting: to `CCOc1cc(/C=C2/SC(=S)NC2=O)ccc1OC(=O)c1ccco1` belongs 4.24%; to `Cc1ccc2c(c1)N(CC(=O)N1CCc3ccccc3C1)C(=O)CO2`, -5.8%.
As for `CC(=O)Nc1cc(NC(C)=O)cc(C(=O)OCC(=O)N2CC(C)OC(C)C2)c1` (stereo not drawn), the AC50 under setting [2] was 5.8 µM [falling, partial curve].
For `CCOC(=O)C1CCCN(c2c(NCCCN(C)Cc3ccccc3)c(=O)c2=O)C1` (stereo not drawn), the cell number change is -42.6%. The concentration at half-maximal activity (AC50) under setting [2] was 11.6 µM [falling, partial curve, poor fit].
For the compound `OC(CNCc1ccccc1)COCc1ccc(Cl)cc1` (stereo not drawn), the cell number change is -41.5%. For the same compound, the AC50 under setting [1] was 32.6 µM [falling, single point].
For `Cc1cc(C)cc(N)c1`, the cell number change stood at 4.86%. In addition, under setting [2], the concentration at half-maximal activity (AC50) is 23.1 µM [rising, single point].
For the compound `O=C(OCc1nnc(-c2ccccc2)o1)c1ccc([N+](=O)[O-])s1`, the cell number change is -12.2%. Besides, the AC50 under setting [2] is 14.6 µM [falling, partial curve].
In the case of `C=CCOC(=O)C1=C(C)Nc2ncnn2C1c1cccs1` (stereo not drawn), under setting [1], the AC50 was 0.82 µM [rising, full curve].
As for `COc1c(C)cc(Br)cc1C(=O)Nc1cccc(NC(=O)c2ccco2)c1`, the cell number change is -32.2%. Also, the AC50 under setting [2] is 1.46 µM [rising, partial curve].
Take `CCN1C(=O)C(NC(C)=O)c2cc(Br)ccc21` (stereo not drawn): the cell number change was -26.2%. Also, the half-maximal activity concentration (AC50) under setting [2] is 32.6 µM [falling, single point].
On to `O=C1COc2ccc(C(=O)/C=C/c3ccccc3)cc2N1`, for which the cell number change came to 5.68%. In addition, under setting [1], the concentration at half-maximal activity (AC50) was 4.61 µM [rising, single point]. In addition, the AC50 under setting [2] is 4.11 µM [rising, partial curve, poor fit].
Take `Cc1ccc(CNC(=O)CCC(=O)Nc2nnc(C)s2)cc1`: the cell number change was -1.42%. For the same compound, the AC50 under setting [2] is 29.1 µM [rising, single point].
With `Cn1c(SCc2ccccc2)nc(C(F)(F)F)cc1=O`, the cell number change is -45.6%. Moreover, the concentration at half-maximal activity (AC50) under setting [1] was 14.6 µM [falling, partial curve]. For the same compound, under setting [2], the AC50 was 29.1 µM [falling, single point].
On to `COCCN(C(=O)CNC(=O)c1ccco1)C(C(=O)NC1CCCC1)c1ccccc1F` (stereo not drawn), for which, under setting [2], the half-maximal activity concentration (AC50) is 0.116 µM [falling, single point].
The same measure, in the same setting: then `CCc1ncc(CN2CCCC(C(=O)Nc3cccc(-c4ccc(F)cc4)c3)C2)cn1` (stereo not drawn), with 18.4 µM [falling, single point].
In the case of `CCCC(CCC)=NNC(=O)CN(Cc1ccccc1)S(=O)(=O)c1ccccc1`, the cell number change was 18.1%. The concentration at half-maximal activity (AC50) under setting [2] was 8.2 µM [rising, partial curve, poor fit].
As for `CN(CC(=O)Nc1cc(Cl)ccc1C#N)C1CCS(=O)(=O)C1` (stereo not drawn), the cell number change came out at 17.9%. For the same compound, the half-maximal activity concentration (AC50) under setting [2] was 29.1 µM [rising, single point].
Regarding `CCOc1cc(/C=N/NC(=O)c2ccc(N(C)S(=O)(=O)c3ccccc3)cc2)ccc1OC`, the cell number change is -34.3%. The concentration at half-maximal activity (AC50) under setting [1] was 0.082 µM [falling, full curve, poor fit]. Moreover, under setting [2], the AC50 is 16.4 µM [falling, partial curve, poor fit].
With `N/C(=N\c1nc2ccccc2o1)NC(=O)c1ccccc1NC(=O)c1ccccc1`, under setting [2], the AC50 was 0.731 µM [rising, single point].
For the compound `CCCCOP(=O)(c1ccc(N(C)C)cc1)C(O)c1ccccc1F` (stereo not drawn), the cell number change was -8.9%.
Take `CC(C)CCc1c(O)nc(SCC(C)C)[nH]c1=O`: the cell number change was -26.8%. Besides, the half-maximal activity concentration (AC50) under setting [2] is 20.6 µM [falling, partial curve].
For the compound `Cc1ccccc1Nc1nc(N)nc(CSc2nncn2C)n1`, the AC50 is 0.206 µM [rising, full curve] under setting [1] and 0.326 µM [rising, full curve] under setting [2].
`O=C(CSc1nnc(-c2cc(-c3cccs3)nc3ccccc23)o1)NC1CCCCC1`: the cell number change was -0.845%. Moreover, the concentration at half-maximal activity (AC50) under setting [2] was 2.91 µM [rising, partial curve].
With `CSCCC(NS(=O)(=O)c1ccccc1F)C(=O)N1CC=C(c2ccccc2)CC1` (stereo not drawn), the cell number change worked out at 79.8%. Besides, under setting [1], the AC50 is 11.6 µM [rising, partial curve]. The concentration at half-maximal activity (AC50) under setting [2] was 18.4 µM [rising, partial curve].
On to `Cc1nc2ccccc2n1CC(O)Cn1c2ccccc2c2ccccc21` (stereo not drawn), for which the cell number change is -19.4%. For the same compound, the concentration at half-maximal activity (AC50) under setting [2] is 14.6 µM [rising, partial curve].
As for `Cc1ccc(S(=O)(=O)CCc2nc3ccccc3[nH]2)cc1C`, the cell number change is 13%.
Still for that read-out and setting: to `Cc1cccc(CSc2nnc(-c3ccco3)o2)c1` belongs -36.9%.
Regarding `C/C(Nc1cccc(F)c1)=C(/C#N)C(N)=O`, the cell number change amounted to 32.3%. Further, the AC50 under setting [1] is 29.1 µM [rising, single point].
On to `Cc1nnc(SCC(=O)NC2CCCc3c2cnn3-c2ccccc2F)o1` (stereo not drawn), for which the cell number change worked out at 5.51%. Moreover, the half-maximal activity concentration (AC50) under setting [1] was 1.64 µM [rising, partial curve, poor fit].
With `CC(C)Oc1ccc(C(=O)O)cc1`, the cell number change is -1.1%. Besides, under setting [2], the AC50 is 0.58 µM [rising, single point].
Regarding `CC1=CC(=O)OC1Cc1ccncc1` (stereo not drawn), the cell number change was -3.26%. The AC50 under setting [2] is 0.291 µM [rising, full curve, poor fit].
As for `Cc1ccc(OCCN2C(=O)C(=O)c3cc(C)ccc32)cc1`, the cell number change was -44.4%. Also, the AC50 under setting [1] was 20.6 µM [falling, single point]. Also, the concentration at half-maximal activity (AC50) under setting [2] was 16.4 µM [falling, single point].
`O=C(CSc1nnc(CNC(=O)c2ccc(F)cc2)o1)NCc1ccc2c(c1)OCO2`: the cell number change stood at 21.2%. For the same compound, the concentration at half-maximal activity (AC50) under setting [1] is 0.0366 µM [rising, full curve, poor fit].
For the compound `COc1ccccc1NC(=O)C1=C(C)Nc2nnnn2C1c1ccccc1OC` (stereo not drawn), the cell number change worked out at 3.28%. Further, under setting [2], the AC50 was 29.1 µM [rising, single point].
For the compound `O=C(NCc1ccncc1)C(=O)C1C(=O)Nc2ccccc21` (stereo not drawn), the cell number change was determined as 1.21%. In addition, the AC50 under setting [2] is 0.13 µM [falling, full curve, poor fit].
For the compound `COc1ccc2[nH]c(=O)c(CN(C)C(=O)c3ccncc3)cc2c1`, the cell number change was -8.78%. In addition, the AC50 under setting [1] was 0.461 µM [falling, full curve]. Under setting [2], the AC50 was 1.03 µM [falling, full curve, poor fit].
